# In all, about 400,000 compounds went through this assay and about 5,500 (1.4%) were called active. Inconclusive means that the source gave no clear call. Such entries were picked first, then a sample of the others. Calls come from the whole dose curve; as a rule, active = well fitted cell-killing curve with a large enough effect; inconclusive = small, poorly fitted or top-dose-only effect, or effect the other way; inactive = flat fitted curve, though single readings scatter. Potencies of inconclusive entries are doubtful fits and often do not repeat.
# Experiment: qHTS assay for MDR1-selective chemotherapeutics: Primary screen using the parental adenocarcinoma cell KB-3-1; note: nearly all actives have a fitted effect of over 60% in size
# Conditions: KB-3-1 viability, CellTiter-Glo ATP luminescence, 72 h; activity change, negative = cytotoxic: at 46.1 µM (top of the series)
# Method in brief: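 Using CellTiter-Glo luminescence, growth of non-resistant KB-3-1 adenocarcinoma cells is assessed 72 h after pin-tool compound addition at 37 °C. Normalized responses across the concentration series yield fitted curves.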
# % is set by controls: 0 for no effect and ±100 for the full control effect; potency is the fitted concentration of half-maximal effect.
Compound,"activity change, negative = cytotoxic",Potency
Cc1c(CNC(=O)c2nn3c(c2Cl)NC(c2ccccc2)CC3C(F)(F)F)cnn1C (configuration not stated),inactive: -8.11%,–
COc1ccc(CC(=O)Nc2cccc(-c3nnc(-c4ccccc4)o3)c2)cc1OC,–,"inconclusive: 32.6 µM [cytotoxic, single point]"
Cc1cccc(-c2nsc(SCC(=O)NCC3CCCO3)n2)c1 (configuration not stated),inconclusive: -3.07%,–
O=C(Nc1ccc(O)cc1)c1cc2n(n1)C(C(F)(F)F)CC(c1ccco1)N2 (configuration not stated),–,active: 10.3 µM
Nc1ccc(-c2nc3cc([N+](=O)[O-])ccc3o2)cc1,–,"inconclusive: 16.4 µM [rising, single point]"
CC1Cc2nc(SCC(=O)c3ccccc3)n(Cc3ccccc3)c(=O)c2S1 (configuration not stated),–,"inconclusive: 29.1 µM [cytotoxic, single point]"
CCc1nc2ccc(C(=O)Nc3cccc(OCC(=O)N(C)C)c3)cn2c1N(C)Cc1cc2ccccc2s1,–,"inconclusive: 29.1 µM [cytotoxic, single point]"
CCCc1cc(NC(=O)COC(=O)c2nccnc2N)n(-c2ccccc2)n1,inactive: 3.31%,–
O=C(/C=C/c1ccc([N+](=O)[O-])s1)N1CCCC1,–,"inconclusive: 29.1 µM [cytotoxic, partial curve, poor fit]"
CCc1ccc(-c2cc3c(N4CCN(c5ccccc5)CC4)nccn3n2)cc1,inactive: -9.46%,–
COC(=O)[C@H](C)N(Cc1ccc(Cl)c(Cl)c1)S(=O)(=O)CCN1CCN(c2ccccc2)CC1,–,"inconclusive: 16.4 µM [cytotoxic, single point]"
COc1ccc(NC(=O)N2CCN(c3cc(-c4noc(C)n4)ccc3C)CC2)c(OC)c1,inactive: -2.54%,–
CC1CC(N(C(=O)c2ccccc2Cl)c2ccccc2)c2ccccc2N1 (configuration not stated),–,"inconclusive: 20.6 µM [cytotoxic, single point]"
Cc1ccc(S(=O)(=O)c2c(N)n(CCC(C)C)c3nc4ccccc4nc23)cc1,–,"inconclusive: 29.1 µM [cytotoxic, single point]"
Cn1c(=O)[nH]c(=O)c2c1nc(N1CCN(C(c3ccccc3)c3ccccc3)CC1)n2CCO,–,"inconclusive: 18.4 µM [cytotoxic, single point]"
CN(C)CCNC(=O)c1cccc(-c2cnc3c(NC=O)cc(-c4ccc(C(=O)N5CCOCC5)cc4)cn23)c1,–,"inconclusive: 14.6 µM [rising, partial curve, poor fit]"
Cc1cc(C)cc(N2CCn3c2nc2c3c(=O)n(CCc3ccccc3)c(=O)n2C)c1,inactive: -1.02%,–
Cc1cc2[nH]c3c4ccccc4nc(C)c3c2cc1C,–,active: 10.3 µM
Cc1cccc(N2CCN(C(=O)c3ccoc3C)CC2)c1C,–,"inconclusive: 16.4 µM [cytotoxic, single point]"
CCC(C)Sc1ccc([C@H]2N[C@@](Cc3ccccc3)(C(=O)OC)[C@H]3C(=O)N(C)C(=O)[C@@H]23)cc1 (some centres not stated),–,"inconclusive: 29.1 µM [cytotoxic, single point]"
CN(CCC#N)c1ccc(C=C(C#N)c2ccc(Br)cc2)cc1,inactive: -21.2%,–
CCCCSc1nc2ccc(Nc3nc(N4CCOCC4)nc(N4CCOCC4)n3)cc2s1,–,"inconclusive: 29.1 µM [cytotoxic, single point]"
O=C(CSC1=NNC(c2ccccn2)S1)Nc1ccc(C(F)(F)F)cc1 (configuration not stated),–,"inconclusive: 25.9 µM [cytotoxic, partial curve, poor fit]"
O=C(CCCc1ccccc1)Nc1nncs1,inactive: 0%,–

Compound,"activity change, negative = cytotoxic",Potency
Nc1c(C(=O)OCC(=O)NCc2ccccc2)[nH]c(=O)[nH]c1=O,–,"inconclusive: 0.0411 µM [rising, full curve]"
CS(=O)(=O)N(CC(=O)N1CCN(c2ccccc2)CC1)c1ccc(Cl)c(C(F)(F)F)c1,–,"inconclusive: 29.1 µM [cytotoxic, single point]"
Cc1nc2c(nc1C)C(=O)c1ccccc1C2=O,–,active: 16.4 µM
N#Cc1c2c(c(NCc3cccnc3)n3c1nc1ccccc13)CCC2,inactive: 28.6%,–
COc1ccc(/C(C)=N/N=C(N)N)c(OC)c1,–,"inconclusive: 29.1 µM [cytotoxic, single point]"
COc1ccc2sc(-c3ccc(SC)cc3)c(C#CCO)c2c1,–,"inconclusive: 23.1 µM [cytotoxic, single point]"
CN(Cc1ccccc1)Cc1c(O)ccc2ccccc12,inactive: 4.21%,–
CC(=Nc1ccccc1)C1=C(O)C(Cc2ccc(F)cc2)NC1=O (configuration not stated),–,active: 1.84 µM
COc1ccc2nc(NC(=O)c3ccc(S(=O)(=O)N4CCCC(C)C4)cc3)sc2c1 (configuration not stated),inactive: -0.0608%,–
O=C(CSc1nc(=O)n(Cc2ccco2)c2c1CCC2)NCc1ccc(F)cc1,inactive: 1.56%,–
Cc1ccc2nc(SCC(=O)N3CCCCC3)nc(=O)n2c1,inactive: -1.94%,–
COc1cccc(C2=CC(c3ccc(N(C)C)cc3)n3nnnc3N2)c1 (configuration not stated),–,active: 18.4 µM
O=C(CNC(=O)c1ccc(F)cc1)Nc1ccccc1C(F)(F)F,inactive: 16.4%,–
Cc1nn(-c2ccccc2)c(N2CCCC2)c1/C=N/NC(=S)Nc1cc(C(F)(F)F)ccc1Cl,–,"inconclusive: 0.651 µM [rising, full curve]"
CCCc1ccccc1OCCNS(=O)(=O)c1cc2c(cc1C)OCC(=O)N2,–,"inconclusive: 23.1 µM [cytotoxic, single point]"
O=c1c(Cl)c(Nc2cccc(Cl)c2)cnn1-c1nc2ccccc2s1,–,"inconclusive: 29.1 µM [rising, single point]"
Cc1ccc(NC(=O)/C=C/c2ccc(S(=O)(=O)N3CCOCC3)cc2)cc1S(=O)(=O)N(C)C,–,"inconclusive: 29.1 µM [cytotoxic, single point]"
Cc1ccc(S(=O)(=O)NCc2ccc(C(=O)N3CCN(c4ccc([N+](=O)[O-])cc4)CC3)cc2)cc1,–,"inconclusive: 5.8 µM [cytotoxic, partial curve]"
Cc1ccc(S(=O)(=O)c2nnn3c2nc(N2CCN(c4ccccc4F)CC2)c2ccccc23)cc1C,inactive: 1.83%,–
CN(CCc1ccccc1)C(=O)c1ccc(NC(=O)Cc2ccc(NC(=O)C3CCCN(C(=O)C4CCCCC4)C3)cc2)cc1 (configuration not stated),–,"inconclusive: 8.2 µM [cytotoxic, partial curve]"
COC(=O)c1ccc(OC)c(CSc2nnc(-c3ccc(C(C)(C)C)cc3)o2)c1,–,"inconclusive: 29.1 µM [cytotoxic, single point]"
CCOC(=O)C1CCCN(C(=O)c2ccc(C(F)(F)F)nc2C)CC1 (configuration not stated),inactive: 0%,–
Cc1cc(C)nc(/N=C(/NC(=O)c2ccccc2)Nc2ccccc2)n1,inactive: -4.49%,–
O=C(NC(=S)N1CCCCCC1)C1CC1,inactive: 2.07%,–

Compound,"activity change, negative = cytotoxic",Potency
CCOc1ncccc1C(=O)N(CCC(C)C)c1c(N)n(Cc2ccccc2)c(=O)[nH]c1=O,–,"inconclusive: 32.6 µM [cytotoxic, partial curve, poor fit]"
O=C(N/N=C/c1ccccc1O)C1CC(=O)N(c2ccc(Cl)cc2)C1 (configuration not stated),–,"inconclusive: 16.4 µM [cytotoxic, single point]"
Cc1cc(NC2CCCC2)n2ncc(-c3ccccc3)c2n1,–,"inconclusive: 20.6 µM [cytotoxic, partial curve, poor fit]"
Cc1cccc(C(=O)Nc2ccc(NC(=O)c3cccc(C)c3)cc2)c1,–,"inconclusive: 29.1 µM [cytotoxic, single point]"
Cc1cc(OC2CCCCC2)nc(NCc2ccccc2)n1,inactive: 2.23%,–
Cc1oc(-c2ccc(Cl)cc2)nc1CSCC(=O)NCCCN1CCOCC1,inactive: -25.7%,–
COc1ccc2c(c1)sc1nc(=O)ccn12,–,"inconclusive: 29.1 µM [cytotoxic, single point]"
Cc1ccc(-c2nn(-c3ccccc3)cc2CC(=S)N2CCOCC2)cc1,inactive: -6.06%,–
COc1cc(C)c(S(=O)(=O)N2CCN=C2c2ccccc2)cc1C,inconclusive: -0.417%,–
CN(NC(=O)c1ccccc1Cl)c1ncc(C(F)(F)F)cc1Cl,–,"inconclusive: 20.6 µM [rising, single point]"
COc1ccc(N2C(=NC(=O)C3CCCCC3)SC3CS(=O)(=O)CC32)cc1OC (configuration not stated),inactive: 17.9%,–
COc1ccccc1NC(=O)/C(C#N)=C/C=C/c1ccco1,–,active: 1.46 µM
COc1cc(CC(=O)OCC(=O)NC2CCCCC2)cc(OC)c1OC,inactive: 1.3%,–
COc1ccc(NC(C)=O)cc1NC(=O)c1ccc(C#N)cc1,inconclusive: -53% [cytotoxic],–
Cc1cc(C)n2nc(C(=O)OCC(=O)N(C)CC(=O)Nc3ccccc3Cl)nc2n1,inactive: -0.637%,–
CCCCCCCCN1C(=O)[C@H](CC(=O)N2CCN(C(=O)C3CC3)CC2)C[C@@]2(C(=O)OC)CC(C)(C)CC=C12,–,"inconclusive: 29.1 µM [cytotoxic, single point]"
O=C(CSc1ccc(Br)cc1)NCC(c1cccs1)N1CCOCC1 (configuration not stated),–,active: 16.4 µM
CCCCCCSc1ccc([C@@H]2[C@@H]3C(=O)N(CC)C(=O)[C@@H]3[C@]3(C(=O)OC)CCCCN23)cc1OC,–,"inconclusive: 23.1 µM [cytotoxic, single point]"
Cc1ccc(NC(=S)NC(NC(=O)c2ccccc2)C(Cl)(Cl)Cl)c(C)c1 (configuration not stated),–,"inconclusive: 29.1 µM [cytotoxic, single point]"
Cc1cc(C(=O)N2CCC2(C)C(=O)Nc2cccc3c2CCCC3)nn1C (configuration not stated),inactive: 0%,–
CCn1c(NCc2cccc(Cl)c2)nc2ccccc21,inactive: 3.02%,–
CC(C)N(Cc1ccccc1)C(=O)C1CCCN(c2ncnc3c2nc2n3CCCCC2)C1 (configuration not stated),–,"inconclusive: 23.1 µM [cytotoxic, single point]"
C=CCNC(=O)/C(C#N)=C/c1ccc(SC)cc1,–,"inconclusive: 29.1 µM [rising, single point]"
Cc1ccc(-c2nn(-c3ccccc3)cc2C2SCC(=O)N2Cc2ccccc2)o1 (configuration not stated),–,"inconclusive: 10.3 µM [cytotoxic, single point]"

# Single entries from the entries so far:
# Entry for CCc1nc2ccc(C(=O)Nc3cccc(OCC(=O)N(C)C)c3)cn2c1N(C)Cc1cc2ccccc2s1 under Potency: inconclusive: 29.1 µM [cytotoxic, single point]
# Entry for Cc1ccc(-c2nn(-c3ccccc3)cc2C2SCC(=O)N2Cc2ccccc2)o1 (configuration not stated) under Potency: inconclusive: 10.3 µM [cytotoxic, single point]
# Entry for Cn1c(=O)[nH]c(=O)c2c1nc(N1CCN(C(c3ccccc3)c3ccccc3)CC1)n2CCO under Potency: inconclusive: 18.4 µM [cytotoxic, single point]
# Entry for C=CCNC(=O)/C(C#N)=C/c1ccc(SC)cc1 under Potency: inconclusive: 29.1 µM [rising, single point]
# Entry for Cc1cc(OC2CCCCC2)nc(NCc2ccccc2)n1 under activity change, negative = cytotoxic: inactive: 2.23%
# Entry for Cc1cccc(N2CCN(C(=O)c3ccoc3C)CC2)c1C under Potency: inconclusive: 16.4 µM [cytotoxic, single point]

# Source: PubChem BioAssay AID1347075 (National Center for Advancing Translational Sciences (NCATS), 2019)
